Reference: the supplement of paper PMC10735217
Structures can show the parent of a compound that is named as a salt. The list shows a part of the results. Repeats in this data set agree poorly, so a single value says little.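 Human kidney-derived cells stably carry a construct in which eight TEAD-binding elements drive luciferase, measured by luminescence in a drug-repurposing library screen. A hit is any compound whose signal exceeds the plate mean by more than five robust Z scores.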

Test system: HEK293A TEAD-LUC reporter
Test: TEAD-luciferase reporter activity (YAP activation), robust Z score vs plate; higher = stronger YAP/TEAD activation
Details: 24 h

SMILES	TEAD-luciferase reporter activity (compound concentration: 200 nM)	TEAD-luciferase reporter activity (compound concentration: 10 uM)	TEAD-luciferase reporter activity (compound concentration: 2 uM)
Nc1ccc(S(=O)(=O)Nc2cnc3c(Cl)cccc3n2)cc1	inactive: -0.504	inactive: 0.171	
Nc1ccc(S(=O)(=O)Nc2cnc3c(Cl)cccc3n2)cc1 [chlorsulfaquinoxalone]			inactive: 0.0823
N[C@@H](Cc1ccc(-c2ccccc2)cc1)C(=O)NCCC(=O)O	inactive: -0.0318	inactive: -0.803	inactive: -0.878
N[C@@H]1CN(c2c(F)cc3c(=O)c(C(=O)O)cn([C@@H]4C[C@@H]4F)c3c2Cl)CC12CC2 [Sitafloxacin hydrate]	inactive: -0.615	inactive: 0.22	inactive: -1.61
COC1CC(OC2C(C)OC(OC3C(C)=CCC4CC(CC5(C=CC(C)C(C(C)C)O5)O4)OC(=O)C4C=C(C)C(O)C5OCC(=C/C=C/C3C)C45O)CC2OC)OC(C)C1NC(C)=O (configuration not stated)	inactive: -1.22	inactive: 0.702	inactive: -2.32
CC(O)CCCCn1c(=O)c2c(ncn2C)n(C)c1=O (configuration not stated) [Lisofylline]	inactive: 0.267	inactive: -0.518	inactive: -0.477
CCOC(=O)[C@H](CCc1ccccc1)N[C@@H](C)C(=O)N1Cc2ccccc2C[C@H]1C(=O)O	inactive: -1.45	inactive: -0.929	
CCOC(=O)[C@H](CCc1ccccc1)N[C@@H](C)C(=O)N1Cc2ccccc2C[C@H]1C(=O)O [quinapril hydrochloride]			inactive: -0.927
C[C@@H]1OC(=O)N(C(=O)NCCCN2CCC(c3ccc(F)cc3)CC2)[C@H]1c1ccc(F)c(F)c1	inactive: 0.019	inactive: -0.814	inactive: -0.363
N#Cc1cc(CN2CCC(Nc3ncnc4sc(Cl)cc34)CC2)ccc1F	inactive: 0.397	inactive: -0.607	inactive: -0.644
COC(=O)Nc1ccc2oc3cc(S(=O)(=O)N[C@H](C(=O)O)C(C)C)ccc3c2c1	inactive: -2.01	inactive: 0.95	inactive: 1.34
CC(=O)NC(CO)C(=O)NC(CC(=O)O)C(=O)NC(CCCCN)C(=O)N1CCCC1C(=O)O (configuration not stated) [Goralatide]	inactive: -0.848	inactive: 0.188	inactive: -0.223
CCN1CCC[C@H]1CNC(=O)c1c(O)c(Cl)cc(Cl)c1OC	inactive: -2.65	inactive: -0.00342	
CCN1CCC[C@H]1CNC(=O)c1c(O)c(Cl)cc(Cl)c1OC [Raclopride]			inactive: -0.268
CC(C)(O)[C@@H]1CC=C(CCO)[C@@H](O)C1	inactive: -0.165	inactive: 3.37	inactive: -0.35
CN(CC1=C(C(=O)O)N2C(=O)[C@@H](NC(=O)/C(=N/OC(C)(C)C(=O)O)c3csc(N)n3)[C@H]2SC1)Cc1cc(=O)c(O)cn1O	inactive: 0.457	inactive: -0.93	active: 5.42
COC[C@H](C)Oc1cc(Oc2cnc(C(=O)N3CCC3)cn2)cc(C(=O)Nc2cnc(C)cn2)c1	inactive: -2.52	inactive: -0.649	inactive: -1.2
c1ccc(-c2noc(-c3ccccc3OC3CNC3)n2)cc1	inactive: -0.159	active: 6.58	inactive: 1.33
COCCc1ccc(-c2c(C)nc3c(N4CCOCC4)ccnn23)cn1	inactive: 0.72	inactive: 0.634	inactive: -0.619
CC(C)(C)NCC(O)COc1ccccc1NC(=O)c1ccco1 (configuration not stated) [ancarolol]	inactive: -1.93	inactive: -0.197	inactive: 0.761
C[C@@H](OC[C@@]1(c2ccccc2)CC[C@]2(CCC(=O)N2)CN1)c1cc(C(F)(F)F)cc(C(F)(F)F)c1 [Rolapitant hydrochloride]	active: 5.52	inactive: 0.452	inactive: -1.35
CCCCCCCCCCCCSC[C@@H](COP(=O)(O)OC[C@H]1O[C@@H](n2cc(C)c(=O)[nH]c2=O)C[C@@H]1F)OCCCCCCCCCC		inactive: -1.52	inactive: -1.02
CCCCCOc1ccc(C(O)(CCN(C)C)C2CCCCC2)cc1 (configuration not stated)	inactive: -2.73	inactive: 4.29	inactive: -1.26
COc1c(Nc2ccc(S(C)(=O)=O)nc2C)ncnc1OC1CCN(C(=O)OC(C)C)CC1	inactive: -1.73	inactive: -0.418	inactive: -0.579
O=C(Cc1ccc(C(F)(F)F)cc1)Nc1ccc2cnn(CCN3CCCC3)c2c1	inactive: -0.755	inactive: -0.355	inactive: -1.58
CCCCCCCC/C=C/CCCCCCCC(=O)OC[C@H]1O[C@@H](n2ccc(N)nc2=O)C(F)(F)[C@@H]1O [Gemcitabine elaidate]	inactive: -2.39	inactive: 0.752	inactive: -2.21
Cc1ccccc1C(=O)NC1CCN(c2ccc3ncc(-c4cccc(C(F)(F)F)c4)n3n2)CC1	inactive: -2.7	inactive: -0.691	

A different layout for part of the listing above.
SMILES | TEAD-luciferase reporter activity (compound concentration: 200 nM) | TEAD-luciferase reporter activity (compound concentration: 10 uM) | TEAD-luciferase reporter activity (compound concentration: 2 uM)
CC(=O)NC(CO)C(=O)NC(CC(=O)O)C(=O)NC(CCCCN)C(=O)N1CCCC1C(=O)O (configuration not stated) [Goralatide] | inactive: -0.848 | inactive: 0.188 | inactive: -0.223
CCN1CCC[C@H]1CNC(=O)c1c(O)c(Cl)cc(Cl)c1OC | inactive: -2.65 | inactive: -0.00342 | 

More entries:

SMILES	TEAD-luciferase reporter activity (compound concentration: 200 nM)	TEAD-luciferase reporter activity (compound concentration: 10 uM)	TEAD-luciferase reporter activity (compound concentration: 2 uM)
CC(C)c1ccc(CC(=O)NC(C)c2ccc(OCC(F)(F)F)cn2)cc1 (configuration not stated)	inactive: -0.614	inactive: -0.797	inactive: -1.47
COc1ccc(Cl)cc1[C@@]1(F)C(=O)Nc2cc(C(F)(F)F)ccc21 [Flindokalner]	inactive: -0.677	active: 8.78	inactive: -0.219
COc1cc(C2CN=C(c3ccc4c(ccn4C)c3)O2)cc(OC)c1OC (configuration not stated)	inactive: -1.2	inactive: 4.79	inactive: 4.25
O=C1O[C@]2(CC[C@H](C(=O)Nc3ccn(-c4ccccc4F)n3)CC2)c2cnccc21 [NPY-Y5 antagonist]			inactive: 0.291
O=C1O[C@]2(CC[C@H](C(=O)Nc3ccn(-c4ccccc4F)n3)CC2)c2cnccc21 [NPY-Y5 antagonist, Banyu]	inactive: 0.0207	inactive: 3.9	
NCCCBr	inactive: -0.4	inactive: -1.22	inactive: -1.81
O=C(O)C[C@H](CC1CCN(C(=O)CCc2ccc3c(n2)NCCC3)CC1)[C@H]1CNc2ccccc2C1	inactive: -0.818	inactive: -1.53	inactive: -1.46
COc1cccc2c1C(=O)c1c(O)c3c(c(O)c1C2=O)CC(O)(C(C)=O)CC3OC1CC(N)C(O)C(C)O1 (configuration not stated) [Daunorubicin]	inactive: -0.532	inactive: 1.99	inactive: 0.475
O=C(O)Cc1ccc(CC2(CNS(=O)(=O)c3ccc(Cl)cc3)CCCC2)cc1	inactive: -1.03	inactive: -1.13	inactive: -1.9
CC(C)=CCOc1cc(NC(=O)c2ccsc2)ccc1Cl	inactive: -0.921	inactive: -0.471	inactive: 0.946
CC(C)n1c(Nc2cccnc2)nc2cnc(Nc3ccc(N4CCN(C)CC4)cc3)nc21	inactive: -0.446	inactive: -0.518	inactive: -1.54
CCCNCC(O)COc1ccccc1C(=O)CCc1ccccc1 (configuration not stated) [propafe    SR]			inactive: -2.97
CCCNCC(O)COc1ccccc1C(=O)CCc1ccccc1 (configuration not stated) [Rythmol]	inactive: -0.57	inactive: -1.8	
C[C@@H](O)[C@H](N)C(=O)N1CCC[C@H]1C(=O)N1CCC[C@H]1C(=O)N[C@H](C(N)=O)[C@@H](C)O	inactive: 0.274	inactive: -0.182	
C[C@@H](O)[C@H](N)C(=O)N1CCC[C@H]1C(=O)N1CCC[C@H]1C(=O)N[C@H](C(N)=O)[C@@H](C)O [Rapastinel]			inactive: -1.08
C[C@H](Oc1ccc(-c2nc(-c3ccc4[nH]cnc4c3)no2)cc1C(F)(F)F)C(F)(F)F	inactive: -2.22	inactive: -0.528	inactive: 0.473
C[C@H](C(=O)O)c1ccc2cc(OCc3ccc4ccccc4n3)ccc2c1	inactive: 1.77	inactive: 3.69	inactive: -0.336
O=C(O)[C@H](CC1CCC1)c1cc(Cl)c(OCC(F)(F)F)c(-c2ccc(C(F)(F)F)cc2)c1	inactive: 0.251	inactive: 2.5	inactive: 0.0239
CCn1c(=O)cc(-c2cccc(Br)c2)c2ccc(C)nc21	inactive: 4.19	inactive: -1.93	inactive: -0.435
C=C[C@]1(C)C[C@@H](OC(=O)CS[C@@H]2C[C@H]3CC[C@@H](C2)N3C)[C@]2(C)[C@H](C)CC[C@]3(CCC(=O)[C@H]32)[C@@H](C)[C@@H]1O [retapamulin]	inactive: 0.059	inactive: 1.87	inactive: -0.515
CCN1CCN(C(=O)c2cnc3cc(C)nn3c2)CC1	inactive: -0.536	inactive: -0.354	
NC(=O)CC[C@H](NC(=O)Cc1ccccc1)C(=O)O [antineoplaston AS2-5]	inactive: -1.34	inactive: 0.528	inactive: -0.169
COc1cccc(C(=O)N2CC3(Cc4ccccc4N(C(C)=O)C3)C2)c1	inactive: 3.07	inactive: -0.428	
C#C[C@]1(O)CC[C@H]2[C@@H]3CCc4cc(O)ccc4[C@H]3CC[C@@]21C [ethinyl estradiol, Cassenne]			inactive: -1.12
C#C[C@]1(O)CC[C@H]2[C@@H]3CCc4cc(O)ccc4[C@H]3CC[C@@]21C	inactive: 1.14	inactive: 0.852	
CCN(CC)CCNC1c2cc(OC)ccc2OCc2ncccc21 (configuration not stated)	inactive: -1.51	inactive: 1.56	inactive: -0.0947
N[C@H](CCC(=O)N[C@@H](Cc1c[nH]c2ccccc12)C(=O)O)C(=O)O [golotimod]	inactive: -0.64	inactive: 0.636	inactive: -0.5
